Data reported in paper PMC7819943, “Rice protein-binding microarrays: a tool to detect cis-acting elements near promoter regions in rice”.
The list shows a part of the results.

The sequences below were run against T1, OsSMF1 (Oryza sativa, UniProt Q6ZLB0 1-436) (assay: protein-binding microarray (RPBM); PBS, 2% BSA, 51.3 ng/ul salmon testes DNA, 50 uM zinc acetate, 200 nM TF, 25 C, 1 h; high values mean tight binding). Conditions: protein: recombinant; tags: N-terminal polyhistidine and DsRed monomer fusion (pET32a); chain copies: 2; label: CyDye5-dUTP incorporated in the synthesized complementary strand; 3' TTTTT single-stranded linker to array surface; dsDNA, one strand shown.
T1 sequence: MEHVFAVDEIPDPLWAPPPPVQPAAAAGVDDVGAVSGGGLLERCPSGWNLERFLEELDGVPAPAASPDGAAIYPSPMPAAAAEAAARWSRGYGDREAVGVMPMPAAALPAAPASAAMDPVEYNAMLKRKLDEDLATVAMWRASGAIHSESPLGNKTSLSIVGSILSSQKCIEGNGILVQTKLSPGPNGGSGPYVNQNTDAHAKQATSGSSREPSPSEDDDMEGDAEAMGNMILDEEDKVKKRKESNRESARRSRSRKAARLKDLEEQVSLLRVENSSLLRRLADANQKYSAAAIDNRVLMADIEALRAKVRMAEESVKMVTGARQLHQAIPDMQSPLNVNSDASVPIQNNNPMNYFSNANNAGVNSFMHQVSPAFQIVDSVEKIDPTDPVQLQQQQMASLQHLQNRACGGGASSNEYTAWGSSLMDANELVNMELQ
Method in brief: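 Using Ni–NTA, transcription factors fused N-terminally to polyhistidine and DsRed were purified after expression in E. coli BL21-CodonPlus. These were incubated at 200 nM with a blocked, double-stranded custom Agilent array for 1 h at 25 °C in a buffer containing 50 µM zinc acetate, and the array was washed. The binding signal is per-feature fluorescence intensity (arbitrary units) on an Axon 4000B scanner.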
“TTTATTATTAGACTACGTTTAATACTTTAAATATGTGTCCCGGAGTCACCTAGTGCAG” was tested, and the binding signal was 3340 fluorescence intensity (a.u.). With “ATCAAATTGCCAAGTAAGCGCCACGTTATTACCAAGACTGCGGAGTCACCTAGTGCAG” the binding signal was 10600 fluorescence intensity (a.u.). For “GAGGATCTTATGTTTAGCAAATTTAGCCCATTGTAAATTTCGGAGTCACCTAGTGCAG”, the binding signal was 3210 fluorescence intensity (a.u.). In the case of “GATTAATTCACTACTGCTTCCTCCATGTCATATTATAAGACGGAGTCACCTAGTGCAG”, the binding signal is reported as 4820 fluorescence intensity (a.u.). With “GCGTGCGCGTCGACGTCGTCACCGCCGTCCACGGCGTAGTCGGAGTCACCTAGTGCAG” the binding signal was 5680 fluorescence intensity (a.u.). For “AGTGTTACTGCACGATATATACACGTTACCACCTGATAGTCGGAGTCACCTAGTGCAG”, the binding signal was 3350 fluorescence intensity (a.u.). For “CTTTCCTCTACACTAGTGGGTGGCGCCGTGGGTGGGAGGGCGGAGTCACCTAGTGCAG”, the binding signal was 4340 fluorescence intensity (a.u.). In the case of “TTTATATAATAGTTACTTACTATACTATTAATACTTGATTCGGAGTCACCTAGTGCAG”, the binding signal is reported as 16600 fluorescence intensity (a.u.). “CCCCTACCAGTGACGCATTAGGTCCTCCTGGCTAGCAAAACGGAGTCACCTAGTGCAG” was tested, and the binding signal was 4750 fluorescence intensity (a.u.). In the case of “TATTTATTATCGCGTGATGCCTGCATCAGCTTATATCTGTCGGAGTCACCTAGTGCAG”, the binding signal is reported as 3670 fluorescence intensity (a.u.). With “TTATATTCTTCGCGGGGCCGAGCCGATTCAACGCGCAGTGCGGAGTCACCTAGTGCAG” the binding signal was 3220 fluorescence intensity (a.u.). In the case of “TATTCGTTGTAGACAGGGCTTCAGAACAGTGACTTGGGCCCGGAGTCACCTAGTGCAG”, the binding signal is reported as 3290 fluorescence intensity (a.u.). With “AAGCACTAATGGGCCGGATAAGCTTGCCACGTAAGCCCGGCGGAGTCACCTAGTGCAG” the binding signal was 26900 fluorescence intensity (a.u.). In the case of “TCACCACGTTCCTCCGCCTTCGCCGTCAGCTTTCCCCTTCCGGAGTCACCTAGTGCAG”, the binding signal is reported as 3720 fluorescence intensity (a.u.). “TACTAGATTGAGGTGGTTAGTGACTCTAGGATCACCGCAACGGAGTCACCTAGTGCAG” was tested, and the binding signal was 3550 fluorescence intensity (a.u.). For “GCCACCAGCATCCACTCCGCCGTCACCACCGTCCCCTTCCCGGAGTCACCTAGTGCAG”, the binding signal was 3320 fluorescence intensity (a.u.). With “CCTGTTGATTGGTTAGCCCAGCCCATGATGTAGCCCATGACGGAGTCACCTAGTGCAG” the binding signal was 3630 fluorescence intensity (a.u.). For “GATTCCTCCCTCCCATTCCCCACCTCACCTCACCTCCTCCCGGAGTCACCTAGTGCAG”, the binding signal was 3840 fluorescence intensity (a.u.). With “TAATTTCTTATAGCTTGTACTACTTCTGCTTGCTCTGGTTCGGAGTCACCTAGTGCAG” the binding signal was 15700 fluorescence intensity (a.u.). With “TGGTGGCAAACAGACGATGACGGTGCCACAGATGGATGGACGGAGTCACCTAGTGCAG” the binding signal was 24600 fluorescence intensity (a.u.). For “CGTCGTCGCCGTCGTCGCCGCCGTTGCGCAACGACGGTTGCGGAGTCACCTAGTGCAG”, the binding signal was 3350 fluorescence intensity (a.u.). “TGATGGCAACGACAAGGCCACATCACCATCACCCATGTCCCGGAGTCACCTAGTGCAG” was tested, and the binding signal was 10800 fluorescence intensity (a.u.). In the case of “TCTTCCATAAGCAATTTCGCTCAATTATTGGTGAGTTGGACGGAGTCACCTAGTGCAG”, the binding signal is reported as 4960 fluorescence intensity (a.u.). With “TATTCAATATTAGATTTAAATGTAACTATTTTAGTATTGTCGGAGTCACCTAGTGCAG” the binding signal was 20300 fluorescence intensity (a.u.). “TTTGCTAACTAGGATGCCACGTCAGTGAAACCAGAGATCCCGGAGTCACCTAGTGCAG” was tested, and the binding signal was 22900 fluorescence intensity (a.u.). With “CGGCCGCGACACGCACACGCCCACCCCACGCCCGCCGCGCCGGAGTCACCTAGTGCAG” the binding signal was 3140 fluorescence intensity (a.u.). With “TGGGTTACCGGCGAATGACGTGGCGTTGAAGTAGGCGAACCGGAGTCACCTAGTGCAG” the binding signal was 8560 fluorescence intensity (a.u.). For “TGCTTTAGCTGCACGCTTGGTTGGCAAATGCAGGGCTTCACGGAGTCACCTAGTGCAG”, the binding signal was 3360 fluorescence intensity (a.u.). For “TTTCTATTCTACTGATCAGCACACAAACAGATGAACACAGCGGAGTCACCTAGTGCAG”, the binding signal was 25700 fluorescence intensity (a.u.). In the case of “CGCGTCCGCAGTGTCCCACTCCCGCCACTCCTTCCACCCCCGGAGTCACCTAGTGCAG”, the binding signal is reported as 3780 fluorescence intensity (a.u.). With “CTACTGAGTGATTTGAGTGTGTTGCAAATATTGTTTAATGCGGAGTCACCTAGTGCAG” the binding signal was 3320 fluorescence intensity (a.u.). In the case of “CGTGGAAGTCAAGAGCGATGACGTGATGAGCACCGGTGTCCGGAGTCACCTAGTGCAG”, the binding signal is reported as 6640 fluorescence intensity (a.u.). For “ACAAGGCAACTACTCCTAGCTAGTAAGCATCAATGCATGGCGGAGTCACCTAGTGCAG”, the binding signal was 4520 fluorescence intensity (a.u.). For “ATGGGGAATCTGGCACCTTTGGCTACTGGTGATTCAGTGTCGGAGTCACCTAGTGCAG”, the binding signal was 3510 fluorescence intensity (a.u.). “GTATTCCAGACGTATGAGGGTTGTCATGTATGACTTGTATCGGAGTCACCTAGTGCAG” was tested, and the binding signal was 4330 fluorescence intensity (a.u.). For “ACAATTATCTAATGACGGTAGGCAATCCAGCGGATTTCTGCGGAGTCACCTAGTGCAG”, the binding signal was 3330 fluorescence intensity (a.u.). In the case of “AGTACTATTTCATAAACTTCTTCGGATAATTACTCAGTAGCGGAGTCACCTAGTGCAG”, the binding signal is reported as 3210 fluorescence intensity (a.u.). In the case of “GCGTTTGGTTTGGTGTGCTCTTAAAATATTGCTCATTAGACGGAGTCACCTAGTGCAG”, the binding signal is reported as 3670 fluorescence intensity (a.u.). For “GTTTCTCTTCGTCGACGTCTCCTGCAAGATCGTTTGGACCCGGAGTCACCTAGTGCAG”, the binding signal was 3490 fluorescence intensity (a.u.). In the case of “CAACTACTTATCACACATTTACACGCATACACTTGGCCACCGGAGTCACCTAGTGCAG”, the binding signal is reported as 5160 fluorescence intensity (a.u.). For “CCATCCAAACAGCCCCATCTTATCCGATAACTACAAGCAACGGAGTCACCTAGTGCAG”, the binding signal was 31200 fluorescence intensity (a.u.). For “ATAAAACCAATAGCGACGTGCCACGTTAGCCCATCCACGTCGGAGTCACCTAGTGCAG”, the binding signal was 12500 fluorescence intensity (a.u.).
